US20190373867A1
No constants are given. Whether binding was seen depends on the method and setting. Some binding calls cover weakened binding; strength is not graded here.

By UniProt entry, the sequences of proteins in these tests, tags left out. Where a name states a change or a piece, a line headed by the entry shows the natural chain unless it says otherwise.
UniProt Q08722: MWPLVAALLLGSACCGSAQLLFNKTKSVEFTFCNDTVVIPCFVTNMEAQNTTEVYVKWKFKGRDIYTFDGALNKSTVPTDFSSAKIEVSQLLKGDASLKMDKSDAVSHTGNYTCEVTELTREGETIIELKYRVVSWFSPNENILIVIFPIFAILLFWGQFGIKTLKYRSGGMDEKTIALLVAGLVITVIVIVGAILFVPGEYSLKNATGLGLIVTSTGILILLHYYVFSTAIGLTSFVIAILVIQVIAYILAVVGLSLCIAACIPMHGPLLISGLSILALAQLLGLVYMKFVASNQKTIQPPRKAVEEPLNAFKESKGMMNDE

What was measured:
[1] = molecular target: humanized SIRPα of B-hSIRPα mice (chimeric human/mouse SIRPα) (chimeric human/mouse) (UniProt P97797); experiment: flow cytometry; CD47 protein on peritoneal cavity cells of B-hSIRPα mice, detected with anti-CD47 human antibody and AF647-Anti-hIgG
[2] = molecular target: T1, endogenous mouse SIRPα of wildtype C57BL/6 mice (NP_031573.2) (mouse (C57BL/6)) (UniProt P97797); experiment: flow cytometry; CD47 protein on peritoneal cavity cells of wildtype C57BL/6 mice, detected with anti-CD47 human antibody and AF647-Anti-hIgG
T1 sequence: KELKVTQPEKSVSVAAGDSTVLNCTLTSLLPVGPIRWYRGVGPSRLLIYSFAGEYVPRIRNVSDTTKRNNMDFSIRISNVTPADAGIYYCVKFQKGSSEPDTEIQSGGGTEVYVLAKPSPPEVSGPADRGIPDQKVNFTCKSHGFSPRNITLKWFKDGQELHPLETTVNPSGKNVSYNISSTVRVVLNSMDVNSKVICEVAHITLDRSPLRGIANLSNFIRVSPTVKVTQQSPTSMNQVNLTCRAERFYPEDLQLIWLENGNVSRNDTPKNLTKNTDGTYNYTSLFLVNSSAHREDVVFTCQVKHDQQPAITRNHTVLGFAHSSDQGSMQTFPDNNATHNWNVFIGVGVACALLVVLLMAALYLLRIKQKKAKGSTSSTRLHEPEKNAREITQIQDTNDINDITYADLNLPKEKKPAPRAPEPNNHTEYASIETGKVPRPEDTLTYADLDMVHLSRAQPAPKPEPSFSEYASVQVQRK

binding [1]: binds
binding [2]: binds
Substance: human CD47 proteins (added to peritoneal cavity cells, Example 16) (from UniProt Q08722 19-139) (ligand)
